# Primary screen of a compound library

Data taken from ChEMBL document CHEMBL3988442, “University of Dundee, Small-Polar-MMV Screening Library” (2021).

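Whole-cell growth test on Mycobacterium tuberculosis, read after 4 days in a medium based on cholesterol and the lipid DPPC; the read-out is not stated. Compounds at 500 µM. Higher reads as more growth inhibition (inferred: compounds with an IC50 in retests scored well above the rest). About 18,000 compounds were tested under these conditions; 5% (about 900) showed 50% or more at least once.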

Values are the deposited “Percent Effect”, in %.
The record does not define 0% and 100%; most values in the screen are far below 50% and negative numbers occur (in some assays of this library far below -100).
The compounds are a random part of those screened.

For Cc1nonc1CC(=O)NC(C)c1nc(C2CC2)no1 (stereo not drawn) the result was 14%.
For CC(C)(C)OC(=O)NCC1CCNC1 (stereo not drawn) the result was 4.178%.
For CN(C)S(=O)(=O)N(CCO)Cc1ccc(Cl)c(Cl)c1 the result was 68.2%.
For CCN(CC(N)=O)c1ccc(C(F)(F)F)cn1 the result was 16.94%.
For COCCOc1ccc(C(=O)NCc2ccco2)cc1 the result was 64.14%.
For CN1CCC(NCCCN2CCOCC2)CC1 the result was 6.851%.
For O=S1(=O)CCC(n2cccn2)C1 (stereo not drawn) the result was 3.319%.
For CCOC(=O)C(CC)(CC)CO the result was -4.366%.
For Cc1cc(C)nc(NCC2(CS(C)(=O)=O)CC2)n1 the result was 6.129%.
For CNC(=O)c1cccc(CNC(=O)Nc2nccs2)c1 the result was 19.54%.
For Cc1nnc2n1CC(N)CC2 (stereo not drawn) the result was -2.481%.
For CC(C)c1ncc(C(=O)NCCN(C)S(C)(=O)=O)cn1 the result was 2.089%.
For CCCN(Cc1cc(OC)ccn1)C1CCS(=O)(=O)C1 (stereo not drawn) the result was 3.906%.
For CS(=O)(=O)CCC1CCCCN1 (stereo not drawn) the result was -20.94%.
For Cc1ccccc1OCCCNC(=O)C1COCCN1 (stereo not drawn) the result was 21.9%.
For O=c1ccc(F)cn1Cc1ccn(-c2ccccc2)n1 the result was 30.91%.
For CCCOc1cc(CNC(=O)c2csnc2C)ccn1 the result was 69.93%.
For NCC1CCN(Cc2cccc(F)c2)CC1 the result was 14.16%.
For Cc1nnc(CCNC(=O)CN2CCC(N(C)C)C2)s1 (stereo not drawn) the result was 10.47%.
For NC(=O)CN1CCCN(c2nc3ccccc3o2)CC1 the result was 3.976%.
For CC(C)(C)c1[nH][nH]c(=O)c1CCN the result was 12.66%.
For Cc1nn(CC(F)(F)F)c(C)c1N the result was 10.53%.
For O=C(COc1ccc2c(c1)CCC(=O)N2)NCC1CC1 the result was -3.891%.
For Cc1ccc(C(=O)NCCc2cncn2C)n1C the result was -7.228%.
For CC1(C)CC(n2cccn2)C(C)(C)O1 (stereo not drawn) the result was -0.2436%.
For Cc1c[nH]c(CN(C)CC2(CO)CCOCC2)n1 the result was -8.166%.
For CC1(C#N)CCN(Cc2ccc(OCCO)cc2)CC1 the result was 14.78%.
For COc1ncccc1CNC(=O)NC1CCS(=O)(=O)C1 (stereo not drawn) the result was 33.08%.
For CN(CCCNS(C)(=O)=O)CC1CCCCO1 (stereo not drawn) the result was 1.522%.
For CC1C(=O)NCCN1C(=O)NCc1cc(F)cc(Br)c1 (stereo not drawn) the result was -12.53%.
For COC(=O)c1n[nH]c2ccc(NC(=O)C(C)C)cc12 the result was 1.823%.
For FC(F)(F)COCCNCCn1cccn1 the result was -1.03%.
For CNC(C)c1cccnc1 (stereo not drawn) the result was 3.658%.
For Cc1c(CN2CCSCC2)cccc1NS(C)(=O)=O the result was 3.478%.
For CC(=O)c1cnc2ccsc2c1 the result was -22.95%.
For COc1ccccc1CNc1nc(C)n[nH]1 the result was -3.333%.
For O=S(=O)(N1CCCCC1)N(Cc1cccnc1)C1CC1 the result was 35.05%.
For Cc1ccc(-c2noc([C@H](N)CCCN)n2)nn1 the result was 0.8016%.

5 of the entries, repeated:

- CC(=O)c1cnc2ccsc2c1 : -22.95%
- CC(C)(C)c1[nH][nH]c(=O)c1CCN : 12.66%
- Cc1ccccc1OCCCNC(=O)C1COCCN1 (stereo not drawn) : 21.9%
- FC(F)(F)COCCNCCn1cccn1 : -1.03%
- Cc1c(CN2CCSCC2)cccc1NS(C)(=O)=O : 3.478%